# Test results: PubChem BioAssay AID1347076 (National Center for Advancing Translational Sciences (NCATS), 2019)
# Among all 400,000 compounds or so, about 13,000 (3.2%) were called active. Inconclusive results, whose numbers are uncertain, are shown with a selection of clear calls. Calls come from the whole dose curve; as a rule, active = well fitted cell-killing curve with a large enough effect; inconclusive = small, poorly fitted or top-dose-only effect, or effect the other way; inactive = flat fitted curve, though single readings scatter. Potencies of inconclusive entries are doubtful fits and often do not repeat.
# Test: qHTS assay for MDR1-selective chemotherapeutics: Primary screen using the drug-selected MDR subline cells KB-V1; note: nearly all actives have a fitted effect of over 60% in size
# Details: KB-V1 MDR cells viability, CellTiter-Glo, 72 h; activity change, negative = cytotoxicity: at 46.1 µM (top of the series)
# Method in brief: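 Compound-treated KB-V1 multidrug-resistant cells, 72 h, 37 degrees C; viability by CellTiter-Glo. Fitted qHTS curves give the values.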
# % is set by controls: 0 for no effect and ±100 for the full control effect; potency is the fitted concentration of half-maximal effect.
SMILES,Potency,"activity change, negative = cytotoxicity"
O=C(c1ccc(CNS(=O)(=O)c2ccccc2)cc1)N1CCC2(CC1)OCCO2,inactive,–
COc1cc(OC)cc(C(=O)Nc2ccc(Br)cc2C(=O)c2ccccc2)c1,inactive,–
c1ccc(C2OCCN3CCCCC23)cc1 (configuration not stated),"inconclusive: 9.2 µM [rising, partial curve, poor fit]",–
Cc1cc(C)c(N=Cc2c(O)[nH]c(=O)[nH]c2=O)c(C)c1,active: 5.17 µM,–
C=C(C)CSc1nnc([C@@H](N)Cc2c[nH]c3ccccc23)o1,inactive,–
Nc1c2c(nc3sc4c(c13)CCCCC4)CCCC2,"inconclusive: 29.1 µM [cytotoxic, single point]",–
C=Cn1ccnc1P(O)(=S)c1nc(C)c(CCOC(C)=O)s1 (configuration not stated),inactive,–
CCCNC(=O)N1[C@H]2CC[C@@H]1C(C(=O)OC)=C(c1ccc(S(C)(=O)=O)cc1)C2,"inconclusive: 0.461 µM [cytotoxic, full curve, poor fit]",–
COc1ccc2nc(-c3ccc(CN4CCC(n5c(=O)[nH]c6ccccc65)CC4)cc3)c(-c3ccccc3)nc2c1,"inconclusive: 23.1 µM [cytotoxic, single point]",–
CC(C)(C#CC(=O)O)OOC(c1ccccc1)(c1ccccc1)c1ccccc1,inactive,–
O=C1NC(=O)N(c2ccccc2)C(=O)/C1=C/C=C/c1ccco1,"inconclusive: 23.1 µM [cytotoxic, single point]",–
Cc1ccc(S(=O)(=O)N2CN3CCN(C3)C2)cc1,inactive,–
O=C1CCN(C(=O)C(Cl)Cl)N1,"inconclusive: 29.1 µM [rising, single point]",–
Clc1ccc(CCC(Cn2ccnc2)Sc2c(Cl)cccc2Cl)cc1 (configuration not stated),active: 20.6 µM,–
C=CCn1c(O)c(C(CC)=Nc2ccc(N(CC)CC)cc2)c(=O)[nH]c1=O,active: 14.6 µM,–
Nc1c(C(=O)OCc2ccccc2)c2nc3ccccc3nc2n1Cc1cccs1,active: 5.17 µM,–
N#Cc1cc2c(nc1SCC(=O)Nc1cccc(C(F)(F)F)c1)C1CCN2CC1,active: 9.2 µM,–
Cc1nc2ccccc2c(=O)n1-c1ccc(C(=O)O)cc1,"inconclusive: 9.2 µM [rising, partial curve]",–
CC(=O)c1cn(CC(=O)NCCc2c[nH]c3ccccc23)c2ccccc12,active: 14.6 µM,–
CC(=O)OCC(=O)[C@H]1CC[C@H]2[C@@H]3CC[C@H]4C[C@H](O)CC[C@]4(C)[C@H]3C(=O)C[C@]12C,inactive,–
CCOC(=O)c1cccc(C2=C(CNC(=O)c3ccc([N+](=O)[O-])cc3)[C@H]3CC[C@@H](C2)N3Cc2ccccc2)c1,"inconclusive: 0.231 µM [cytotoxic, full curve]",–
CC(=O)c1cccc(OCC(=O)N2CCN(CC(=O)Nc3cccc(F)c3)CC2)c1,inactive,–
CCOc1ccccc1NC(=O)c1cccn(Cc2ccccc2C)c1=O,"inconclusive: 7.31 µM [cytotoxic, partial curve]",–
Cc1c2ccncc2c(C)c2c1[nH]c1ccccc12,active: 9.2 µM,–

SMILES,Potency,"activity change, negative = cytotoxicity"
CC/C(=N\NC(=O)c1ccccc1)c1c(O)n(C2CCCCC2)c(=O)[nH]c1=O,inactive,–
CC[C@@]1(O)C(=O)OCc2c1cc1n(c2=O)Cc2cc3c(NC(=O)CN)cccc3nc2-1,inactive,–
CC(C)(C)NC(=S)/N=C(\N)N[N+](=O)[O-],"inconclusive: 13 µM [rising, partial curve, poor fit]",–
CCCCC1(CCCC)C(=O)NC(=Nc2cccc(C)c2)NC1=O,"inconclusive: 29.1 µM [cytotoxic, single point]",–
COc1ccccc1N1CCN(Cc2ccc(Br)s2)CC1,"inconclusive: 16.4 µM [cytotoxic, single point]",–
C/C(=N/O)c1ccc2ccc3ccccc3c2c1,active: 3.26 µM,–
CCCCn1c(O)c(C(C)=NCCN2CCCCC2)c(=O)[nH]c1=O,inactive,–
COC(=O)C1=C(c2ccc(-c3ccccc3)c(F)c2)C[C@@H]2CC[C@H]1N2C(=O)N1CCc2cc(OC)c(OC)cc2C1,"inconclusive: 29.1 µM [cytotoxic, single point]",–
COc1ccc(CCN(C)Cc2ccc(F)cc2F)cc1OC,inactive,–
CCOP(=S)(OCC)SCCSCC,inactive,–
CC1(C)N(O)C2CCCCC2N1O (configuration not stated),inactive,–
COC(=O)C1=C(c2ccc(OCc3ccccc3)cc2)C[C@@H]2CC[C@H]1N2C(=O)NCCCCc1ccccc1,"inconclusive: 29.1 µM [cytotoxic, single point]",–
Cc1nnc(NC(=O)c2cccn(Cc3cccc(F)c3)c2=O)s1,"inconclusive: 0.0164 µM [rising, full curve]",–
CC(C)NC(C)C(=O)c1ccc2ccccc2c1 (configuration not stated),"inconclusive: 29.1 µM [rising, single point]",–
Cc1cc([N+](=O)[O-])c(Cl)cc1NC(=O)C(C)C,inactive,–
Cc1oc(-c2ccc(F)cc2F)nc1CN1C[C@@H]2C[C@@H](C1)c1cccc(=O)n1C2,–,inconclusive: -33.3% [cytotoxic]
O=C1/C(=C/c2ccccc2)C[C@@]2(O)[C@H]3Cc4ccc(O)c5c4[C@@]2(CCN3CC2CC2)C1O5 (some centres not stated),active: 7.31 µM,–
COc1cc(C)c(CN2CC=C(c3ccc(F)cc3)CC2)cc1C,"inconclusive: 16.4 µM [cytotoxic, partial curve]",–
Cc1c(N=Cc2c(O)n(Cc3ccco3)c(=O)[nH]c2=O)c(=O)n(-c2ccccc2)n1C,"inconclusive: 29.1 µM [rising, single point]",–
Cc1ccsc1C(=O)C1CCCN(Cc2ccccc2O)C1 (configuration not stated),"inconclusive: 8.2 µM [cytotoxic, partial curve]",–
CCOC(=O)c1c(C=O)c2ccccc2n1Cc1ccccc1,active: 20.6 µM,–
CC1CN(O)C2CCc3c(no[n+]3[O-])C12O (configuration not stated),"inconclusive: 29.1 µM [rising, single point]",–
COc1ccc(-n2c(/C=C/c3ccc4c(c3)OCO4)nc3ccccc3c2=O)cc1,"inconclusive: 23.1 µM [cytotoxic, single point]",–
CCOC(=O)c1c(C)n(Cc2ccc(F)cc2)c2ccc(O)cc12,active: 16.4 µM,–

# Complete entries, looked up by structure. Order of values: Potency | activity change, negative = cytotoxicity
# `CCOC(=O)c1c(C=O)c2ccccc2n1Cc1ccccc1` as listed: active: 20.6 µM | –
# `O=C1/C(=C/c2ccccc2)C[C@@]2(O)[C@H]3Cc4ccc(O)c5c4[C@@]2(CCN3CC2CC2)C1O5` (some centres not stated) as listed: active: 7.31 µM | –
# `COc1ccc(CCN(C)Cc2ccc(F)cc2F)cc1OC` as listed: inactive | –

# Following part.

SMILES,Potency,"activity change, negative = cytotoxicity"
N#CC1c2ccccc2-n2nncc2CN1C(=O)CCc1ccccc1 (configuration not stated),inactive,–
CC12CCC3C(CCC4CC(=O)C(C(O)C(F)(F)F)CC43C)C1CCC2O (configuration not stated),inactive,–
O=c1[nH]c2ccccc2n1C1CCN(C(c2cccc3ccccc23)c2nnnn2-c2ccc3c(c2)OCCO3)CC1 (configuration not stated),"inconclusive: 29.1 µM [cytotoxic, single point]",–
O=C1NC(=O)C(=Cc2ccc3ccccc3c2)C(=O)N1,inactive,–
Cc1cccc2nc(-c3ccccc3)c(-c3ccc(CN4CCC(n5c(=O)[nH]c6ccccc65)CC4)cc3)nc12,"inconclusive: 20.6 µM [cytotoxic, single point]",–
CN1CCN(c2ccc([N+](=O)[O-])c(NCC3CCCO3)c2)CC1 (configuration not stated),"inconclusive: 16.4 µM [cytotoxic, partial curve, poor fit]",–
COc1ccccc1CNCCc1ccc(F)cc1,"inconclusive: 0.651 µM [cytotoxic, full curve, poor fit]",–
CCCCn1c(O)c(C(C)=NCc2ccc3c(c2)OCO3)c(=O)[nH]c1=O,"inconclusive: 16.4 µM [cytotoxic, single point]",–
COc1ccc(C(=O)OC2CC3CCC(C2)[N+]3(C)[O-])cc1OC (configuration not stated),"inconclusive: 20.6 µM [rising, single point]",–
O=C(NCC1=C(c2cccc3ccccc23)C[C@@H]2CC[C@H]1N2Cc1ccco1)c1cccnc1,inactive,–
Cc1cc(C)c(S(=O)(=O)N2Cc3ccccc3-n3nncc3C2)c(C)c1,"inconclusive: 5.17 µM [cytotoxic, single point]",–
O=c1[nH]c(=O)n(Cc2ccccc2)c(O)c1/C=N/Nc1c(F)c(F)c(F)c(F)c1F,"inconclusive: 14.6 µM [rising, partial curve, poor fit]",–
C#CC1(O)CCC2C3CCC4=C/C(=N/OCC(=O)NCC(=O)NC(C(=O)O)C(C)C)CC[C@]4(C)C3CC[C@@]21C (some centres not stated),inactive,–
O=c1[nH]c2ccccc2n1C1CCN(Cc2ccc(-c3[nH]c4cc5ncnc5cc4nc3-c3ccccc3)cc2)CC1,"inconclusive: 29.1 µM [cytotoxic, single point]",–
CSc1ccccc1C(=O)C1CCCN(Cc2cccc(C)n2)C1 (configuration not stated),"inconclusive: 16.4 µM [cytotoxic, single point]",–
Cc1cc(O)c2c3c(c(=O)oc2c1)CCC(C)C3 (configuration not stated),inactive,–
COc1cccc(-c2nn3c(=O)cc(CN4CCN(C(=O)COc5ccccc5C)CC4)nc3s2)c1,"inconclusive: 10.3 µM [rising, partial curve]",–
COC(=O)C1C2c3ccccc3C(c3ccccc32)C1C(=O)OC (configuration not stated),"inconclusive: 20.6 µM [cytotoxic, single point]",–
CCN(CC)c1ccc(N=Cc2c(O)n(-c3ccccc3)c(=O)[nH]c2=O)cc1,"inconclusive: 25.9 µM [cytotoxic, single point]",–
CC[n+]1c(/C=C/C=C/c2ccc(N(C)C)cc2)sc2ccccc21,"inconclusive: 25.9 µM [cytotoxic, partial curve, poor fit]",–
O=c1c2ccccc2nc(-c2ccc(Cl)cc2Cl)n1-c1nccs1,inactive,–
CCCN1CCc2cccc3c2[C@H]1Cc1ccc(O)c(O)c1-3,"inconclusive: 16.4 µM [cytotoxic, partial curve]",–
O=P(NC1CCCCC1)(Oc1ccccc1)Oc1ccccc1,"inconclusive: 20.6 µM [cytotoxic, partial curve, poor fit]",–
COc1ccccc1OCCCn1cc(C(C)=O)c2ccccc21,"inconclusive: 5.17 µM [cytotoxic, full curve]",–
